Experimental data reported in the supplement of paper PMC10849652.
The other results are listed elsewhere or left out. Residues, ends and D or L forms follow the SMILES beside them. *: point of attachment. Cbz = O=C(OCc1ccccc1)*

The chains behind the UniProt entries cited, without tags or fusion partners. Where a name states a change or a piece, a line headed by the entry shows the natural chain unless it says otherwise.
UniProt Q5VV42: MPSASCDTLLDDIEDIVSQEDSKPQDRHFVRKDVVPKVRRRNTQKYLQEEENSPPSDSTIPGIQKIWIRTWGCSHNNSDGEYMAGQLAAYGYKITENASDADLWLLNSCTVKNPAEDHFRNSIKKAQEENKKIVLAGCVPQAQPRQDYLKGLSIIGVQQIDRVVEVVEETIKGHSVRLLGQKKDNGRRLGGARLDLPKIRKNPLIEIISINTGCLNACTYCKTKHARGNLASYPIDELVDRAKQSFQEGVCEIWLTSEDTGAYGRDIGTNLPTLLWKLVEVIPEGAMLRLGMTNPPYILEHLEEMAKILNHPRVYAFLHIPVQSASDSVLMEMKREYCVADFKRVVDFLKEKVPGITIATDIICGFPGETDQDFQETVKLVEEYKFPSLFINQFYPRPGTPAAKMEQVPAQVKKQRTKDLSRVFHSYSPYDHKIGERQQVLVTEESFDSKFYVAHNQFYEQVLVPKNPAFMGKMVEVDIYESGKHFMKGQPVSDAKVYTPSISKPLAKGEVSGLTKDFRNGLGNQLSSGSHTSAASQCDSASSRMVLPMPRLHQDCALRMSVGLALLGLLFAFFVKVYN
UniProt Q9Y259: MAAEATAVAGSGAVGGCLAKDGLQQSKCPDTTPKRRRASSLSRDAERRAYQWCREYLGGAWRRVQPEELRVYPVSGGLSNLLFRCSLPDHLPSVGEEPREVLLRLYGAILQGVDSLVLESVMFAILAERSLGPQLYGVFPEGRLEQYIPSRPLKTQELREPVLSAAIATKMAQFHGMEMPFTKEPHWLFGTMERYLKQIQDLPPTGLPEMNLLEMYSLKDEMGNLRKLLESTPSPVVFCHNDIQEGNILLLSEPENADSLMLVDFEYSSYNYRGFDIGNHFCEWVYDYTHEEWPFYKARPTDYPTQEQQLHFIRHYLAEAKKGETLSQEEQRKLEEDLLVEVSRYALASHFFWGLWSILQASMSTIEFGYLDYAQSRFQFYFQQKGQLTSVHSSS
UniProt Q9HD42: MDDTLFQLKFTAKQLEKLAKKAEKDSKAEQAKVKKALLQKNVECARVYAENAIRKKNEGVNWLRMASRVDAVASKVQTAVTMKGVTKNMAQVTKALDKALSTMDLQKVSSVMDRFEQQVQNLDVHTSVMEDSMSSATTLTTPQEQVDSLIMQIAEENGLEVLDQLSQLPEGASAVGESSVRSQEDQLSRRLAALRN
UniProt P23528, whole entry, looked up: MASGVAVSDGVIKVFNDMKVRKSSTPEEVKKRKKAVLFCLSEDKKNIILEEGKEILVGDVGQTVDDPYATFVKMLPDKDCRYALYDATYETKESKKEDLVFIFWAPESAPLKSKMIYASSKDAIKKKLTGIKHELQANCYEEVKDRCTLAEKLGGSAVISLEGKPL
UniProt Q9BRQ6: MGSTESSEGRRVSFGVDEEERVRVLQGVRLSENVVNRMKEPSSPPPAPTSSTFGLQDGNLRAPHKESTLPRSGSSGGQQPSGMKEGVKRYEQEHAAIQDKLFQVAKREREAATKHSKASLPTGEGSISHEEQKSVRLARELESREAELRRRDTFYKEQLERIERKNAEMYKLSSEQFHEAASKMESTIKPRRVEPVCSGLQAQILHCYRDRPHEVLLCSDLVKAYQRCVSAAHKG
UniProt Q9Y3E7, whole entry, looked up: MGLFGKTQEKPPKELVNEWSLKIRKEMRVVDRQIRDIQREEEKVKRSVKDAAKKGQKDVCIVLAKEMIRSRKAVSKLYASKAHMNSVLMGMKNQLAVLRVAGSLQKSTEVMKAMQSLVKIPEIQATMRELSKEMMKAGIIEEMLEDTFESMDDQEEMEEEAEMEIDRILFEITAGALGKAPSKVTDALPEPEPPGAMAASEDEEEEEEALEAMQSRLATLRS
UniProt Q99618: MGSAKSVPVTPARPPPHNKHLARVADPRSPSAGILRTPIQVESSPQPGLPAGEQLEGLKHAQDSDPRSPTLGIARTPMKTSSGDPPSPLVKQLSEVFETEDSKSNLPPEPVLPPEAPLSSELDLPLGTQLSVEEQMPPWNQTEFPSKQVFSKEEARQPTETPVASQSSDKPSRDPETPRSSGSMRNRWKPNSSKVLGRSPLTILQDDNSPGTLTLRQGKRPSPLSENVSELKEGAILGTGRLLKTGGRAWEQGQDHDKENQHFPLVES
UniProt Q00536: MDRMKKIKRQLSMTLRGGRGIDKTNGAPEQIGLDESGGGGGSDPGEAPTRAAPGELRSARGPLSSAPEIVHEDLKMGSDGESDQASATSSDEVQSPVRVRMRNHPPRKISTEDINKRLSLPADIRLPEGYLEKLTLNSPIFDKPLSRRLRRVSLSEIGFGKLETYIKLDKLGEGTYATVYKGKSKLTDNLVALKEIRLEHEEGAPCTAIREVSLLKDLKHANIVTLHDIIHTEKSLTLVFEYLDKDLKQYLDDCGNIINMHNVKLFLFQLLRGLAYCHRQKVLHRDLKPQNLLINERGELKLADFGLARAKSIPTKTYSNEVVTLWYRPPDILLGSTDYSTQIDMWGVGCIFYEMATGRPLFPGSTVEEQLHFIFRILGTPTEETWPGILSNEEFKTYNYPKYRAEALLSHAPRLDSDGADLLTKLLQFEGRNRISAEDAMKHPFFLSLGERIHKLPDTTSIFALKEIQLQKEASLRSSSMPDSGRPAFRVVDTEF
UniProt Q9NRR8: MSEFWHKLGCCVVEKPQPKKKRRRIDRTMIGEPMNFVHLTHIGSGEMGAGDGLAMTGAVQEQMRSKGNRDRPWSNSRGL
UniProt Q9NX63: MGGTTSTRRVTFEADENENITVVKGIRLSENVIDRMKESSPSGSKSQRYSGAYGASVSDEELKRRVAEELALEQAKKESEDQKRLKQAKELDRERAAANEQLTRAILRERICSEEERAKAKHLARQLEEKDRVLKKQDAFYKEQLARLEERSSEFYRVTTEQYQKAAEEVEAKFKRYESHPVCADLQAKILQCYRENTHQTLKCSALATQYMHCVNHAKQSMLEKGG
UniProt O00748: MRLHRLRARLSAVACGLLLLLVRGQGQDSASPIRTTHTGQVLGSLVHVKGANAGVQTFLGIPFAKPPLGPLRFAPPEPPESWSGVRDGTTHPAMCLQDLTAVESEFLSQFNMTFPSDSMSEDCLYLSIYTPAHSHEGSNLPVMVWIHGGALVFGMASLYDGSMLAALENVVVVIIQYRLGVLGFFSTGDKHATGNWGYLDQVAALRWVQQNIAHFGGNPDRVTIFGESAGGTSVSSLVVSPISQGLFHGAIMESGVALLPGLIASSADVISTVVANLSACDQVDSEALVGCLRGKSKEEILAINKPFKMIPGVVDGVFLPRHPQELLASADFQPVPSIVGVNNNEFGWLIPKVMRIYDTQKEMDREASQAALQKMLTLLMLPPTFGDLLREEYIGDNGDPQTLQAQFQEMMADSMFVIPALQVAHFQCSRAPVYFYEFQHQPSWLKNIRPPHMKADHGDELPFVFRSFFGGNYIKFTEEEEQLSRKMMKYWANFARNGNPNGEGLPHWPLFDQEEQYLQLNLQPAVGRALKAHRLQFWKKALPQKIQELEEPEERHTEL
UniProt Q9NYV4, whole entry, looked up: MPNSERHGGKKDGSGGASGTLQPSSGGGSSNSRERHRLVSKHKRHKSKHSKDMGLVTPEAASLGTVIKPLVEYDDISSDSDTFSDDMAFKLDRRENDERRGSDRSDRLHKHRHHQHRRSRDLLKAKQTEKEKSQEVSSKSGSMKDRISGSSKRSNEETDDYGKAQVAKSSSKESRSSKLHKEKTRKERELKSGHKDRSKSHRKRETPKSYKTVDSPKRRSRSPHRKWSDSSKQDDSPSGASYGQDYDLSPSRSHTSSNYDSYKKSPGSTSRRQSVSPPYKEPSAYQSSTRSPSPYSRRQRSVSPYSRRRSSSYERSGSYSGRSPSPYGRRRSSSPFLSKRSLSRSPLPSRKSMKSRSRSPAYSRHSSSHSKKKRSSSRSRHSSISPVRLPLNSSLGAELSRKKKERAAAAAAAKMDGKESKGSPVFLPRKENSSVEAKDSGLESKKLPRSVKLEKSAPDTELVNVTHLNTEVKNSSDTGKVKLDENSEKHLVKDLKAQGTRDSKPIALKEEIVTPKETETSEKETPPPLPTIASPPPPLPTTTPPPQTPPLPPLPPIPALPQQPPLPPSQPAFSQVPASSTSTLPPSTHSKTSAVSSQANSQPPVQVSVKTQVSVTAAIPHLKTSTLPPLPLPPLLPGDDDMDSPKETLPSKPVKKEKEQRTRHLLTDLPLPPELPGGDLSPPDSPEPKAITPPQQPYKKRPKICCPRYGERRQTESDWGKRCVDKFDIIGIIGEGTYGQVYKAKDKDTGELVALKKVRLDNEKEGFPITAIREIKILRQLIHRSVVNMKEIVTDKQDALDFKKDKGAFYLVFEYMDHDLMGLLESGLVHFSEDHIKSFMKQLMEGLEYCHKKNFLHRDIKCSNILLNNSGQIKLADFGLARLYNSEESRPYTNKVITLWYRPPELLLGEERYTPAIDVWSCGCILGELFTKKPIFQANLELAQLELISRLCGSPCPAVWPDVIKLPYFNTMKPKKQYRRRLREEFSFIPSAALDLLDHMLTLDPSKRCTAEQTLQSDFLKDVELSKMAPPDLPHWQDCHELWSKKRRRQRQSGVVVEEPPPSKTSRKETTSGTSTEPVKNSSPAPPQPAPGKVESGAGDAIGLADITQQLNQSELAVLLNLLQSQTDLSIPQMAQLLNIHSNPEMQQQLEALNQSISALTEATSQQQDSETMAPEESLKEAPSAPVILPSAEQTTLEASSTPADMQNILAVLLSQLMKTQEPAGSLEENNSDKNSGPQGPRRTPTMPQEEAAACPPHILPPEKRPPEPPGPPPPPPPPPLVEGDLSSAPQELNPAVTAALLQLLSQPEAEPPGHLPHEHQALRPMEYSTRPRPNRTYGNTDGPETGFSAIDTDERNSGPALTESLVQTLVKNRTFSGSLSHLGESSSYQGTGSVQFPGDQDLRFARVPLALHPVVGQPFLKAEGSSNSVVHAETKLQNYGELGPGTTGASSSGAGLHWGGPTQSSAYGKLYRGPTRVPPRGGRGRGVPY
UniProt Q9Y6H1: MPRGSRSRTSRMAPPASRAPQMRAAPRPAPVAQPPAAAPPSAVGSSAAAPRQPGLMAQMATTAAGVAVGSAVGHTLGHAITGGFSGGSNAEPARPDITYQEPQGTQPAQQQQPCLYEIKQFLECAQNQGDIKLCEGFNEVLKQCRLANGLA
UniProt P21127: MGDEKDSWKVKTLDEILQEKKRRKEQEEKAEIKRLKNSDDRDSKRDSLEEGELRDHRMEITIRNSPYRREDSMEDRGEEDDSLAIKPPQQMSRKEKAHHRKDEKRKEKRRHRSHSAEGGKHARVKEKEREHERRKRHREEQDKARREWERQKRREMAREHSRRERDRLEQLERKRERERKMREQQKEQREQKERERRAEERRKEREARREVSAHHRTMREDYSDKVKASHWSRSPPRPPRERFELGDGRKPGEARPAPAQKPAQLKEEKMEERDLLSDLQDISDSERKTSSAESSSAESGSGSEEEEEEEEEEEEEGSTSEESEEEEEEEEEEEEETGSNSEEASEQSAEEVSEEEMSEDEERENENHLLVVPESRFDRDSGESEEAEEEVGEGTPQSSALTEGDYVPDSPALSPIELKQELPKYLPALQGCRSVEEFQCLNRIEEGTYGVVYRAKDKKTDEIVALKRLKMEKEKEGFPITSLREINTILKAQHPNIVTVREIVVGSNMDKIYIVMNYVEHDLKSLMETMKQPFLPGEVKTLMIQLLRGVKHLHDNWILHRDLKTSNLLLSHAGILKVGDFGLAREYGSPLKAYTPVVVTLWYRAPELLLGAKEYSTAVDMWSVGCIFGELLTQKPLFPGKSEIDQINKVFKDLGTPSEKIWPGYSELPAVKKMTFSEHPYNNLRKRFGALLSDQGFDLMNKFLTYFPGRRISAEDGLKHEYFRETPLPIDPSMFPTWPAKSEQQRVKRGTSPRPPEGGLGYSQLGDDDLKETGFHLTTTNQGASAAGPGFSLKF
UniProt Q9Y5P4: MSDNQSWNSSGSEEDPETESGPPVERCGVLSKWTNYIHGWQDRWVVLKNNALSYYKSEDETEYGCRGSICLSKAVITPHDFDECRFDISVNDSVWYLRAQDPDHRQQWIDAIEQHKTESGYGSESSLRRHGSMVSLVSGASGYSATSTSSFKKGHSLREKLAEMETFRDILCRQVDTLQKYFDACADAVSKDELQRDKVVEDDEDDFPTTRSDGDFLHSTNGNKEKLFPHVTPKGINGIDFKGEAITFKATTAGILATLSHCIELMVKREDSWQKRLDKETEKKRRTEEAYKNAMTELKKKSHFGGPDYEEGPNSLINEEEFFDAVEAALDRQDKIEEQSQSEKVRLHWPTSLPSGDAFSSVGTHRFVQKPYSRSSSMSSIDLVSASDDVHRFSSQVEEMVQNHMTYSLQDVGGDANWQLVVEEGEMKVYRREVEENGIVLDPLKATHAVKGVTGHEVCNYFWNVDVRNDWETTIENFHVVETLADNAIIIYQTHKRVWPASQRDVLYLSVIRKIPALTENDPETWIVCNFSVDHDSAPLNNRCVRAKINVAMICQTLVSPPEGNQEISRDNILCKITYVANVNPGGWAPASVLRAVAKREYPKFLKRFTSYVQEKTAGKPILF

Columns and labels:
Assay in all cases: log2 fold change, soluble protein after heating vs DMSO (PISA); higher = thermal stabilisation; K562 cells, 10 uM, 30 min; active = over 0.2 and 3.5 SD of the protein, either way, in both replicates (recomputed)
erlotinib = compound: C#Cc1cccc(Nc2ncnc3cc(OCCOC)c(OCCOC)cc23)c1 [erlotinib]
Procedure, shortened: (§1)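 K562 cells at 2×10^6 cells/mL were treated for 30 min with 10 μM compound, and aliquots were heated for 3 min over 48°C-58°C before pooling. Extraction used PBS with 0.5% NP-40 at 4°C, and soluble protein was the supernatant after 21,000xg for 90 min, measured by TMTpro 16plex LC-MS/MS with channel sums equalised. Thermal stability values, relative to control samples and from duplicates, are log2 fold changes.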

[1] = compound: C/C(=N\NC(=O)C1=CC(=CC=C1)S(=O)(=O)N2CCOCC2)/C3=C(C=CC(=C3)Cl)O
Procedure, shortened: as §1

[2] = compound: C1=CC(=C(C=C1Cl)C2=NC3=NC=CN=C3C(=N2)NC4=CC=NC=C4)F
Procedure, shortened: as §1

[3] = compound: C1=CC(=CC=C1C2=NC3=C(N2)C=C(C=C3)C(=O)N)OC4=CC=C(C=C4)Cl
Procedure, shortened: as §1

[4] = compound: C1=CC2=C(C=CC(=C2)/C=C\3/C(=O)NC(=NCC4=CC=CS4)S3)N=C1
Procedure, shortened: as §1

[5] = compound: C1=CC2=NC=CN=C2C=C1/C=C/3\C(=O)NC(=O)S3
Procedure, shortened: as §1

[6] = compound: C1=CC=C(C=C1)C2=NC(=C(N2)C3=CC=NC=C3)C4=CC(=C(C=C4)Cl)O
Procedure, shortened: as §1

[7] = compound: C1=CC=C2C(=C1)C3=NNC4=CC=CC(=C43)C2=O
Procedure, shortened: as §1

[8] = compound: C1CCN(C1)C(=O)NC2=CC=CC(=C2)NC3=NC=C(C(=N3)NCCC4=CN=CN4)Br
Procedure, shortened: as §1

[9] = compound: C1CN(CCC1(CC2=CC=C(C=C2)Cl)N)C3=NC=NC4=C3C=CN4
Procedure, shortened: as §1

IRAK-1-4 Inhibitor I = compound: C1COCCN1CCN2C3=CC=CC=C3N=C2NC(=O)C4=CC(=CC=C4)[N+](=O)[O-] [IRAK-1-4 Inhibitor I]
Procedure, shortened: as §1

ibrutinib = compound: C=CC(=O)N1CCC[C@@H](n2nc(-c3ccc(Oc4ccccc4)cc3)c3c(N)ncnc32)C1 [ibrutinib]
Procedure, shortened: as §1

[10] = compound: CC(=O)c1cnc2ccc(-c3cc(Cl)c(O)c(Cl)c3)nc2c1N[C@H]1CC[C@H](CN(C)C)CC1
Procedure, shortened: as §1

ralimetinib = compound: CC(C)(C)Cn1c(N)nc2ccc(-c3[nH]c(C(C)(C)C)nc3-c3ccc(F)cc3)nc21 [ralimetinib]
Procedure, shortened: as §1

[11] = compound: CC(C)(O)CC(=O)NCCn1ccc2ncnc(Nc3ccc(Oc4cccc(C(F)(F)F)c4)c(Cl)c3)c21
Procedure, shortened: as §1

[12] = compound: CC(C)C1=C2N=C(C=C(N2N=C1)NCC3=CC=CC=C3)NCCCCCCN
Procedure, shortened: as §1

[13] = compound: CC(C)C[C@@H](C=O)NC(=O)[C@H](CC(C)C)NC(=O)[C@H](CC(C)C)NC(=O)OCc1ccccc1
Procedure, shortened: as §1

pinometostat = compound: CC(C)N(C[C@H]1O[C@@H](n2cnc3c(N)ncnc32)[C@H](O)[C@@H]1O)[C@H]1C[C@@H](CCc2nc3cc(C(C)(C)C)ccc3[nH]2)C1 [pinometostat]
Procedure, shortened: as §1

[14] = compound: CC1=C(C(CC(=O)N1)C2=CC=C(C=C2)C(F)(F)F)C(=O)NC3=C(C=C4C(=C3)C=NN4)F
Procedure, shortened: as §1

[15] = compound: CC1=C(C2=C(C=C1)C(=O)C3=CC=CC=C3N2CCCN)C
Procedure, shortened: as §1

Measured: log2 fold change

CDKAL1 (UniProt Q5VV42)
inactive: erlotinib 0.117 | [1] -0.227 | [2] -0.06 | [3] 0.077 | [4] 0.093 | [5] 0.031 | [6] 0.004 | [7] 0.054 | [8] 0.013 | [9] -0.029 | IRAK-1-4 Inhibitor I -0.127 | ibrutinib -0.021 | [10] 0.017 | ralimetinib 0.021 | [11] -0.061 | [12] -0.076 | [13] 0.06 | pinometostat 0.061 | [14] 0.003 | [15] 0.096

CHKB (UniProt Q9Y259)
inactive: erlotinib 0 | [1] 0.109 | [2] 0.144 | [3] 0.002 | [4] 0.041 | [5] 0.009 | [6] -0.034 | [7] -0.044 | [8] -0.122 | [9] 0.07 | IRAK-1-4 Inhibitor I 0.015 | ibrutinib 0.173 | [10] 0.021 | ralimetinib 0.081 | [11] -0.215 | [12] 0.02 | [13] 0.015 | pinometostat -0.002 | [14] 0.066 | [15] 0.049

CHMP1A (UniProt Q9HD42)
inactive: erlotinib 0.104 | [1] -0.004 | [2] 0.024 | [3] 0.026 | [4] -0.029 | [5] 0.038 | [6] -0.04 | [7] -0.017 | [8] 0.008 | [9] 0.018 | IRAK-1-4 Inhibitor I 0.026 | ibrutinib 0.001 | [10] 0.018 | ralimetinib -0.081 | [11] -0.006 | [12] -0.089 | [13] -0.028 | pinometostat -0.059 | [14] 0.02 | [15] 0.001

CFL1 (UniProt P23528)
inactive: erlotinib -0.033 | [1] 0.047 | [2] 0.128 | [3] -0.004 | [4] -0.07 | [5] 0.018 | [6] 0.033 | [7] 0.032 | [8] -0.048 | [9] -0.015 | IRAK-1-4 Inhibitor I 0.111 | ibrutinib -0.009 | [10] 0.065 | ralimetinib 0.098 | [11] 0.052 | [12] 0.003 | [13] -0.076 | pinometostat -0.05 | [14] -0.01 | [15] -0.012

Reprinted from the listing (3 entries):
CDKAL1 (UniProt Q5VV42)
inactive: erlotinib 0.117 | [1] -0.227 | [2] -0.06 | [3] 0.077 | [4] 0.093 | [5] 0.031 | [6] 0.004 | [7] 0.054 | [8] 0.013 | [9] -0.029 | IRAK-1-4 Inhibitor I -0.127 | ibrutinib -0.021 | [10] 0.017 | ralimetinib 0.021 | [11] -0.061 | [12] -0.076 | [13] 0.06 | pinometostat 0.061 | [14] 0.003 | [15] 0.096

CHKB (UniProt Q9Y259)
inactive: erlotinib 0 | [1] 0.109 | [2] 0.144 | [3] 0.002 | [4] 0.041 | [5] 0.009 | [6] -0.034 | [7] -0.044 | [8] -0.122 | [9] 0.07 | IRAK-1-4 Inhibitor I 0.015 | ibrutinib 0.173 | [10] 0.021 | ralimetinib 0.081 | [11] -0.215 | [12] 0.02 | [13] 0.015 | pinometostat -0.002 | [14] 0.066 | [15] 0.049

CHMP1A (UniProt Q9HD42)
inactive: erlotinib 0.104 | [1] -0.004 | [2] 0.024 | [3] 0.026 | [4] -0.029 | [5] 0.038 | [6] -0.04 | [7] -0.017 | [8] 0.008 | [9] 0.018 | IRAK-1-4 Inhibitor I 0.026 | ibrutinib 0.001 | [10] 0.018 | ralimetinib -0.081 | [11] -0.006 | [12] -0.089 | [13] -0.028 | pinometostat -0.059 | [14] 0.02 | [15] 0.001

Remaining list, next part.

CHCHD6 (UniProt Q9BRQ6)
inactive: erlotinib 0.146 | [1] 0.129 | [2] 0.142 | [3] 0 | [4] 0.278 | [5] -0.123 | [6] 0.129 | [7] -0.127 | [8] 0.089 | [9] 0.094 | IRAK-1-4 Inhibitor I 0.008 | ibrutinib 0.2 | [10] -0.059 | ralimetinib -0.27 | [11] 0.001 | [12] 0.003 | [13] 0.002 | pinometostat 0.008 | [14] 0.062 | [15] -0.08

CHMP3 (UniProt Q9Y3E7)
inactive: erlotinib -0.001 | [1] 0.056 | [2] 0.055 | [3] -0.085 | [4] 0.046 | [5] -0.053 | [6] -0.057 | [7] 0 | [8] -0.029 | [9] 0.036 | IRAK-1-4 Inhibitor I 0.043 | ibrutinib 0.006 | [10] -0.025 | ralimetinib -0.034 | [11] -0.098 | [12] -0.167 | [13] 0.01 | pinometostat 0.015 | [14] -0.005 | [15] -0.004

CDCA3 (UniProt Q99618)
inactive: erlotinib -0.023 | [1] -0.016 | [2] 0.015 | [3] 0.063 | [4] -0.014 | [5] 0.038 | [6] -0.05 | [7] -0.066 | [8] -0.011 | [9] 0.078 | IRAK-1-4 Inhibitor I 0.066 | ibrutinib 0.009 | [10] 0.014 | ralimetinib -0.11 | [11] -0.042 | [12] 0.058 | [13] 0.02 | pinometostat -0.053 | [14] 0.01 | [15] 0.009

CDK16 isoform 2 (UniProt Q00536)
inactive: erlotinib -0.072 | [1] -0.025 | [2] -0.023 | [3] -0.07 | [4] 0.043 | [5] -0.016 | [6] -0.024 | [7] 0.121 | [8] 0.139 | [9] -0.029 | IRAK-1-4 Inhibitor I -0.029 | ibrutinib -0.018 | ralimetinib 0.05 | [11] -0.031 | [12] 0.069 | [13] 0.059 | pinometostat 0.016 | [15] 0.025
active: [10] 0.843

CDC42SE1 (UniProt Q9NRR8)
inactive: erlotinib 0.078 | [1] 0.041 | [2] -0.005 | [3] 0.014 | [4] 0.021 | [5] 0 | [6] -0.009 | [7] -0.207 | [8] 0.023 | [9] -0.012 | IRAK-1-4 Inhibitor I 0.066 | ibrutinib 0.049 | [10] -0.004 | ralimetinib 0.021 | [11] 0.042 | [12] -0.111 | [13] 0.074 | pinometostat 0.11 | [15] 0.015

CHCHD3 (UniProt Q9NX63)
inactive: erlotinib 0.004 | [1] -0.016 | [2] 0.046 | [3] -0.002 | [4] 0.016 | [5] 0.018 | [6] -0.006 | [7] -0.064 | [8] 0.007 | [9] 0.006 | IRAK-1-4 Inhibitor I 0.013 | ibrutinib -0.014 | [10] 0.003 | ralimetinib -0.032 | [11] 0.032 | [12] 0.005 | [13] -0.01 | pinometostat -0.076 | [14] 0.028 | [15] 0.011

CES2 isoform 4 (UniProt O00748)
inactive: erlotinib -0.05 | [1] -0.16 | [2] -0.264 | [3] -0.008 | [4] -0.06 | [5] -0.011 | [6] 0.139 | [7] 0.083 | [8] 0.061 | [9] -0.087 | IRAK-1-4 Inhibitor I -0.005 | ibrutinib 0.077 | [10] 0.038 | ralimetinib 0.006 | [11] 0.012 | [12] 0.045 | [13] 0.06 | pinometostat -0.02 | [15] 0

CDK12 (UniProt Q9NYV4)
inactive: erlotinib -0.049 | [1] 0.001 | [2] -0.44 | [3] 0.076 | [4] -0.06 | [5] -0.053 | [6] -0.066 | [7] -0.23 | [8] -0.077 | [9] -0.187 | IRAK-1-4 Inhibitor I -0.179 | ibrutinib 0.008 | [10] -0.566 | ralimetinib 0.138 | [11] 0.067 | [12] -0.211 | [13] 0.006 | pinometostat 0.399 | [15] -0.014

CDC73 (UniProt Q6P1J9)
inactive: erlotinib 0.095 | [1] 0.038 | [2] -0.309 | [3] 0.163 | [4] 0.043 | [5] -0.249 | [6] -0.107 | [7] -0.023 | [8] -0.16 | [9] 0.031 | IRAK-1-4 Inhibitor I -0.113 | ibrutinib 0.124 | [10] -0.137 | ralimetinib -0.028 | [11] 0.061 | [12] -0.327 | [13] 0.144 | pinometostat -0.045 | [14] 0.04 | [15] -0.053

CHCHD2 (UniProt Q9Y6H1)
inactive: erlotinib -0.083 | [1] 0.107 | [2] 0.092 | [3] 0.049 | [4] 0.028 | [5] 0.032 | [6] -0.028 | [7] 0.098 | [8] 0.003 | [9] -0.001 | IRAK-1-4 Inhibitor I 0.009 | ibrutinib 0.067 | [10] 0.022 | ralimetinib -0.035 | [11] -0.017 | [12] 0.095 | [13] -0.071 | pinometostat -0.068 | [15] -0.004

CDK11B (UniProt P21127)
active: [10] 2.34 | [15] -0.366
inactive: erlotinib 0.044 | [1] 0.006 | [2] -0.139 | [3] 0.063 | [4] 0.035 | [5] -0.033 | [6] -0.042 | [7] -0.049 | [8] -0.033 | [9] -0.058 | IRAK-1-4 Inhibitor I -0.151 | ibrutinib -0.026 | ralimetinib 0.04 | [11] -0.006 | [12] -0.116 | [13] 0.076 | pinometostat -0.11

CERT isoform 3 (UniProt Q9Y5P4)
active: [10] -0.382
inactive: erlotinib 0.05 | [1] 0.083 | [2] 0.018 | [3] -0.009 | [4] 0.039 | [5] 0.005 | [6] 0.044 | [7] 0 | [8] -0.054 | [9] -0.007 | IRAK-1-4 Inhibitor I -0.052 | ibrutinib 0.017 | ralimetinib 0.038 | [11] 0.166 | [12] 0.103 | [13] 0.005 | pinometostat 0.026 | [15] -0.033
